Measured values as given in PubChem BioAssay AID330 (DTP/NCI, 2004).
The list shows only some results of the screen, not a fair sample: it gathers tests that were run many times, whatever their T/C, doses with no T/C, and many T/C values between a quarter and a half above the control. Other doses and runs of a compound stand elsewhere. T/C gives the treated animals as a percentage of the vehicle group. Some entries give survivors of the animals treated and no T/C: the source files T/C as zero there, which appears to mark a toxic dose or a test without result, not a measured value. Some doses without a T/C left all or most animals alive at the check, yet need not have been tolerated: survival well below the control is almost never listed, so the zero probably covers shortened survival too. Survivors were counted at the toxicity check, usually on the fifth day, unless a day is given; later deaths do not show. Schedule codes are those of the source, read here as Q, the interval in days (D) or hours (H), X, the number of doses. Some doses were run more than once; the values are given in rising order. Where survival is the endpoint, this PubChem deposit counts one and a half times the control or more as active, and values a quarter to a half above the control carry no call in these data; other NCI protocols may use other cut-offs.

Test system: P388 leukemia ip, CD2F1 mice, survival T/C
Experiment: NCI In Vivo Anticancer Drug Screen. Data for tumor model P388 Leukemia (intraperitoneal) in CD2F1 (CDF1) mice
Conditions: T/C endpoint: median survival time, higher T/C = longer survival
[1] = dose: 200.0 mg/kg/injection, schedule: Q01DX005 (ip), vehicle: Klucel (hydroxypropylcellulose) (HPC)
[2] = dose: 25.0 mg/kg/injection, schedule: Q01DX005 (ip), vehicle: Klucel (hydroxypropylcellulose) (HPC)
[3] = dose: 200.0 mg/kg/injection, schedule: Q01DX009 (ip), vehicle: saline
[4] = dose: 240.0 mg/kg/injection, schedule: Q01DX005 (ip), vehicle: saline with Tween-80
[5] = dose: 100.0 mg/kg/injection, schedule: Q01DX009 (ip), vehicle: Klucel (hydroxypropylcellulose) (HPC)
[6] = dose: 50.0 mg/kg/injection, schedule: Q01DX009 (ip), vehicle: other

`NC(CCC(=O)NC(CSCNC(=O)Nc1ccc(Cl)cc1)C(=O)NCC(=O)O)C(=O)O` (stereo not drawn) was tested, and the survivor count (dose: 240.0 mg/kg/injection, schedule: Q01DX005 (ip), vehicle: saline) was 5 of 6.

In the case of `Cc1ccc2ccccc2c1C(=N)c1cc2ccccc2c2ccccc12`, the survivor count [1] is reported as 5 of 5.

In the case of `CN=C1C=CC(=C(c2ccc(N(C)C)cc2)c2ccc(N(C)C)cc2)C=C1`, the T/C (dose: 6.25 mg/kg/injection, schedule: Q01DX005 (ip), vehicle: Klucel (hydroxypropylcellulose) (HPC)) is reported as 126 % of control, the T/C (dose: 12.5 mg/kg/injection, schedule: Q01DX005 (ip), vehicle: Klucel (hydroxypropylcellulose) (HPC)) is reported as 128 and 130 % of control and the T/C [2] is reported as 130 % of control. For the same compound, the survivor count [2] was 4 of 6, the survivor count (dose: 50.0 mg/kg/injection, schedule: Q01DX005 (ip), vehicle: Klucel (hydroxypropylcellulose) (HPC)) was 1 of 6 and the survivor count (dose: 100.0 mg/kg/injection, schedule: Q01DX005 (ip), vehicle: Klucel (hydroxypropylcellulose) (HPC)) was 0 of 5. The survivor count [1] was 0 of 6.

With `CC12NC(=O)NC1(C)NC(=O)N2` (stereo not drawn) the survivor count [3] was 4 of 6 and the survivor count (dose: 400.0 mg/kg/injection, schedule: Q04DX003 (ip), vehicle: saline) was 0 of 6.

For `C=C(c1ccc(OC)cc1)C(CC)c1ccc(OC)cc1` (stereo not drawn), the survivor count [4] was 6 of 6.

`CCCCCCCCCCCCCCCC(=O)OC12CC(C)C3(O)C(C=C(CO)CC4(O)C(=O)C(C)=CC43)C1C2(C)CO` (stereo not drawn) was tested, and the survivor count (dose: 0.12 mg/kg/injection, schedule: Q01DX009 (ip), vehicle: saline with Tween-80) was 5 of 6.

For `O=[N+]([O-])/N=c1/nc2scc(-c3ccc([N+](=O)[O-])cc3)n2s1`, the survivor count (dose: 15.0 mg/kg/injection, schedule: Q01DX005 (ip), vehicle: saline with Tween-80) was 6 of 6, the survivor count (dose: 30.0 mg/kg/injection, schedule: Q01DX005 (ip), vehicle: saline with Tween-80) was 6 of 6 and the survivor count (dose: 60.0 mg/kg/injection, schedule: Q01DX005 (ip), vehicle: saline with Tween-80) was 6 of 6. For the same compound, the survivor count (dose: 120.0 mg/kg/injection, schedule: Q01DX005 (ip), vehicle: saline with Tween-80) was 5 of 6 and 6 of 6.

For `CC(=O)Nc1ccc(OCCOC(=O)Nc2c(Cl)cccc2Cl)cc1`, the survivor count [5] was 6 of 6.

For `O=C1C2C3C=CC(O3)C2C(=O)N1CCN1CCCCC1` (stereo not drawn), the survivor count (dose: 200.0 mg/kg/injection, schedule: Q01DX005 (ip), vehicle: other) was 0 of 5.

In the case of `Cc1cc(C(=O)O)c(C)c2c1sc1ccccc12`, the survivor count [4] is reported as 0 of 6.

In the case of `CCSC(=Nc1nc2ccc([N+](=O)[O-])cc2s1)SCC`, the survivor count (dose: 50.0 mg/kg/injection, schedule: Q01DX009 (ip), vehicle: Klucel (hydroxypropylcellulose) (HPC)) is reported as 6 of 6, the survivor count [5] is reported as 4 of 6 and the survivor count (dose: 200.0 mg/kg/injection, schedule: Q01DX009 (ip), vehicle: Klucel (hydroxypropylcellulose) (HPC)) is reported as 0 of 6.

In the case of `COc1cc2ccc(/C=C\[N+](=O)[O-])cc2cc1OC`, the T/C (dose: 25.0 mg/kg/injection, schedule: Q01DX009 (ip), vehicle: other) is reported as 130 % of control, the T/C [6] is reported as 126 % of control and the survivor count [6] is reported as 3 of 6. For the same compound, the survivor count (dose: 100.0 mg/kg/injection, schedule: Q01DX009 (ip), vehicle: other) was 1 of 6 and the survivor count (dose: 200.0 mg/kg/injection, schedule: Q01DX009 (ip), vehicle: other) was 3 of 6.

`O=C(Nc1ccc([N+](=O)[O-])cc1C(Sc1ccccc1)c1ccccc1)c1ccc([N+](=O)[O-])cc1` (stereo not drawn) was tested, and the survivor count (dose: 400.0 mg/kg/injection, schedule: Q01DX001 (ip), vehicle: saline with Tween-80) was 6 of 6.

In the case of `O=C(OCC1OC(n2cc(C(F)(F)F)c(=O)[nH]c2=O)CC1OC(=O)c1ccc([N+](=O)[O-])cc1)c1ccc([N+](=O)[O-])cc1` (stereo not drawn), the survivor count [1] is reported as 6 of 6.

With `O=[N+]([O-])[O-].OCCNCCNCC[OH2+].OCCNCCNCC[OH2+].[Cu+2]` the survivor count (dose: 50.0 mg/kg/injection, schedule: Q01DX009 (ip), vehicle: saline) was 0 of 6, the survivor count (dose: 100.0 mg/kg/injection, schedule: Q01DX009 (ip), vehicle: saline) was 0 of 6 and the survivor count [3] was 0 of 6.
